Experimental data published in article doi:10.1101/2022.10.16.511936.
These are yes or no findings as the source states them, for the method shown. In cells and extracts the contact can be indirect.

Molecular target: T1, CLV1, rBiFC construct (Arabidopsis) (UniProt Q9SYQ8)
T1 sequence: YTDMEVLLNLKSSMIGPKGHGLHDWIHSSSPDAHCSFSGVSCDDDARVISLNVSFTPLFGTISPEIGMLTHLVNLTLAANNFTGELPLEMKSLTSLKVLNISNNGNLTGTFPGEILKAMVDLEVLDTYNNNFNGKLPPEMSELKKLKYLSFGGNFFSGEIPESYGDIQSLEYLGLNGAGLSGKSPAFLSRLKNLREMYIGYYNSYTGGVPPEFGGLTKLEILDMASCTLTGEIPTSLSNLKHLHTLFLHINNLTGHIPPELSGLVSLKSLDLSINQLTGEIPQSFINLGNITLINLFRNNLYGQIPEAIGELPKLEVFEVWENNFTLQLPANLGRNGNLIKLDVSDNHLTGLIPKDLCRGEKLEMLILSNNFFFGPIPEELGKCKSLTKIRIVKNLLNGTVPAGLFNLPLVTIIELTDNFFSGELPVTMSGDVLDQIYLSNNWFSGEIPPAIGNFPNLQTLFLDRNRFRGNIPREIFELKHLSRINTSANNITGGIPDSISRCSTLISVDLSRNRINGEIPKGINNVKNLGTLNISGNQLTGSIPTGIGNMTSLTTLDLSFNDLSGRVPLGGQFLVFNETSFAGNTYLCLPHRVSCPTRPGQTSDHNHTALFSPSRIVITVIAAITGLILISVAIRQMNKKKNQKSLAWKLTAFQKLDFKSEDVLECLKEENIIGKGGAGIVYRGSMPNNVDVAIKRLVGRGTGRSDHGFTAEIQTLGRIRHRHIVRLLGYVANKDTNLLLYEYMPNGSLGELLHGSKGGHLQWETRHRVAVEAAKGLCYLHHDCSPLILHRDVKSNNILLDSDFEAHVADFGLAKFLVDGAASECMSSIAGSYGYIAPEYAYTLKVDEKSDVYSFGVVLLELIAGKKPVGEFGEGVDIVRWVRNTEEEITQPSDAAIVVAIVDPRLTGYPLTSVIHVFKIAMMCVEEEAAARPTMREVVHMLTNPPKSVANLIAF
Assay: split reporter

B1: AP-2M, rBiFC construct (protein, UniProt O23140 1-438)
chain: MPVAASAIYFLNLRGDVLINRTYRDDVGGNMVDAFRTHIMQTKELGNCPVRQIGGCSFVYMRISNVYIVIVVSSNANVACGFKFVVEAVALFKSYFGGAFDEDAIRNNFVLIYELLDEIMDFGYPQNLSPEILKLYITQEGVRSPFSSKPKDKPVPNATLQVTGAVGWRREGLAYKKNEVFLDIVESVNLLMSSKGNVLRCDVTGKVLMKCFLSGMPDLKLGLNDKIGLEKESEMKSRPAKSGKTIELDDVTFHQCVNLTRFNSEKTVSFVPPDGEFELMKYRITEGVNLPFRVLPTIKELGRTRMEVNVKVKSVFGAKMFALGVVVKIPVPKQTAKTNFQVTTGRAKYNPSIDCLVWKIRKFPGQTESTLSAEIELISTMGEKKSWTRPPIQMEFQVPMFTASGLRVRFLKVWEKSGYNTVEWVRYITKAGSYEIRC
binding: no binding
